These are yes or no findings as the source states them, for the method shown. In cells and extracts the contact can be indirect. Some binding calls cover weakened binding; strength is not graded here. Where a sequence is shown, tags or fusion partners need not be part of it.
How the values were obtained:
AFF3-Flag (human) = molecular target: T1, AFF3-Flag (human) (UniProt P51826); assay: co-IP; nuclear extract (150 mM NaCl, 1% NP40) of H295R cells overexpressing AFF3-Flag or Ctr vector; anti-Flag M2 affinity gel overnight at 4 °C, three washes, elution with 3X Flag peptide; western blot
T1 sequence: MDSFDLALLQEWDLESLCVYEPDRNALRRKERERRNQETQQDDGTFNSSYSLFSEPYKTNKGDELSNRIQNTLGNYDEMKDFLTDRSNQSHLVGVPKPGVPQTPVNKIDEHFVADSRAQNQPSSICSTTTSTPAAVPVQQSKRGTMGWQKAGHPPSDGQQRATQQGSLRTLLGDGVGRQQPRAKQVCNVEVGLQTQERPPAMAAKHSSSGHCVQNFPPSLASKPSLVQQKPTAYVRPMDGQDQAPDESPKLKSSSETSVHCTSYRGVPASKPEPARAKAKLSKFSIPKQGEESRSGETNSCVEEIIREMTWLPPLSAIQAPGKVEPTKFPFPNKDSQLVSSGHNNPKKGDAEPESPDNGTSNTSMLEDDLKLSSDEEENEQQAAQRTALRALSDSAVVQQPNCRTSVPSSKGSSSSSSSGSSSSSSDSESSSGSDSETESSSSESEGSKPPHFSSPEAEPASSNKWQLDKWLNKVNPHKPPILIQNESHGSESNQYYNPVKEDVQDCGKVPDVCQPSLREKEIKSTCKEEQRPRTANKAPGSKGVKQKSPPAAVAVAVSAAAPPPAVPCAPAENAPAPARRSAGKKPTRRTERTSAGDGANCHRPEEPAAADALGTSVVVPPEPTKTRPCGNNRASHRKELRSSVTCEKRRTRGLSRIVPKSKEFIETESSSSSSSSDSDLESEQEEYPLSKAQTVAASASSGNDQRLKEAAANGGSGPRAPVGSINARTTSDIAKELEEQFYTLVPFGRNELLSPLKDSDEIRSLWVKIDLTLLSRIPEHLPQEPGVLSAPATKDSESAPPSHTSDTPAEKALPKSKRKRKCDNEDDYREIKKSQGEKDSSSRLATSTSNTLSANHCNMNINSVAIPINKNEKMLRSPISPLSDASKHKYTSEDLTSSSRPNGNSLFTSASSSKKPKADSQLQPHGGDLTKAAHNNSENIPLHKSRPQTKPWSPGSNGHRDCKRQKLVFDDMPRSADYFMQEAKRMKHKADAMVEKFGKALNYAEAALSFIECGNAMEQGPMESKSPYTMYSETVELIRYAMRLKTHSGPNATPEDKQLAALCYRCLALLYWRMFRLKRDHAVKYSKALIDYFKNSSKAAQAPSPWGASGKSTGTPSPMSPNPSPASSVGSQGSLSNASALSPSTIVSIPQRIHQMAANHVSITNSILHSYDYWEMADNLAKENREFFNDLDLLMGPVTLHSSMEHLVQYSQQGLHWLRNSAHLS

Protein sequences, listed by entry. Tags and fused reporters are not part of them. Lines headed by an entry give the natural chain unless they say otherwise; changes in a name come on top.
UniProt P50750: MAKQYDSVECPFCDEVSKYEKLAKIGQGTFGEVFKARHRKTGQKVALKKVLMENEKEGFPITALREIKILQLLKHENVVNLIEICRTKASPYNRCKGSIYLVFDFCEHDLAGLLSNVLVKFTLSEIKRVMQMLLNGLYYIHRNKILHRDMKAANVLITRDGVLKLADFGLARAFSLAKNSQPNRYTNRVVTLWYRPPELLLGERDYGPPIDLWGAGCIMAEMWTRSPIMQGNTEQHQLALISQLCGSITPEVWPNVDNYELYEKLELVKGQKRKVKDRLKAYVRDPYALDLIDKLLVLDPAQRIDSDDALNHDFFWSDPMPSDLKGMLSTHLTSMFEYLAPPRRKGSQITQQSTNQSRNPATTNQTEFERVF

[1] = molecular target: CDK9 (human (endogenous in H295R)) (UniProt P50750); assay: co-IP; lysate of H295R cells overexpressing AFF3-Flag or silenced for AFF3 (siAFF3); anti-CDK9 antibodies and protein A magnetic sepharose beads overnight at 4 °C, three washes (150 mM NaCl, 1% NP40); western blot

CDK9 (from UniProt P50750 1-372)
binding (AFF3-Flag (human)): binds

B1: AFF3-Flag (protein, UniProt P51826 1-1226)
chain: MDSFDLALLQEWDLESLCVYEPDRNALRRKERERRNQETQQDDGTFNSSYSLFSEPYKTNKGDELSNRIQNTLGNYDEMKDFLTDRSNQSHLVGVPKPGVPQTPVNKIDEHFVADSRAQNQPSSICSTTTSTPAAVPVQQSKRGTMGWQKAGHPPSDGQQRATQQGSLRTLLGDGVGRQQPRAKQVCNVEVGLQTQERPPAMAAKHSSSGHCVQNFPPSLASKPSLVQQKPTAYVRPMDGQDQAPDESPKLKSSSETSVHCTSYRGVPASKPEPARAKAKLSKFSIPKQGEESRSGETNSCVEEIIREMTWLPPLSAIQAPGKVEPTKFPFPNKDSQLVSSGHNNPKKGDAEPESPDNGTSNTSMLEDDLKLSSDEEENEQQAAQRTALRALSDSAVVQQPNCRTSVPSSKGSSSSSSSGSSSSSSDSESSSGSDSETESSSSESEGSKPPHFSSPEAEPASSNKWQLDKWLNKVNPHKPPILIQNESHGSESNQYYNPVKEDVQDCGKVPDVCQPSLREKEIKSTCKEEQRPRTANKAPGSKGVKQKSPPAAVAVAVSAAAPPPAVPCAPAENAPAPARRSAGKKPTRRTERTSAGDGANCHRPEEPAAADALGTSVVVPPEPTKTRPCGNNRASHRKELRSSVTCEKRRTRGLSRIVPKSKEFIETESSSSSSSSDSDLESEQEEYPLSKAQTVAASASSGNDQRLKEAAANGGSGPRAPVGSINARTTSDIAKELEEQFYTLVPFGRNELLSPLKDSDEIRSLWVKIDLTLLSRIPEHLPQEPGVLSAPATKDSESAPPSHTSDTPAEKALPKSKRKRKCDNEDDYREIKKSQGEKDSSSRLATSTSNTLSANHCNMNINSVAIPINKNEKMLRSPISPLSDASKHKYTSEDLTSSSRPNGNSLFTSASSSKKPKADSQLQPHGGDLTKAAHNNSENIPLHKSRPQTKPWSPGSNGHRDCKRQKLVFDDMPRSADYFMQEAKRMKHKADAMVEKFGKALNYAEAALSFIECGNAMEQGPMESKSPYTMYSETVELIRYAMRLKTHSGPNATPEDKQLAALCYRCLALLYWRMFRLKRDHAVKYSKALIDYFKNSSKAAQAPSPWGASGKSTGTPSPMSPNPSPASSVGSQGSLSNASALSPSTIVSIPQRIHQMAANHVSITNSILHSYDYWEMADNLAKENREFFNDLDLLMGPVTLHSSMEHLVQYSQQGLHWLRNSAHLS
binding [1]: binds

B2: AFF3 (endogenous) (protein, UniProt P51826-1 1-1226)
chain: MDSFDLALLQEWDLESLCVYEPDRNALRRKERERRNQETQQDDGTFNSSYSLFSEPYKTNKGDELSNRIQNTLGNYDEMKDFLTDRSNQSHLVGVPKPGVPQTPVNKIDEHFVADSRAQNQPSSICSTTTSTPAAVPVQQSKRGTMGWQKAGHPPSDGQQRATQQGSLRTLLGDGVGRQQPRAKQVCNVEVGLQTQERPPAMAAKHSSSGHCVQNFPPSLASKPSLVQQKPTAYVRPMDGQDQAPDESPKLKSSSETSVHCTSYRGVPASKPEPARAKAKLSKFSIPKQGEESRSGETNSCVEEIIREMTWLPPLSAIQAPGKVEPTKFPFPNKDSQLVSSGHNNPKKGDAEPESPDNGTSNTSMLEDDLKLSSDEEENEQQAAQRTALRALSDSAVVQQPNCRTSVPSSKGSSSSSSSGSSSSSSDSESSSGSDSETESSSSESEGSKPPHFSSPEAEPASSNKWQLDKWLNKVNPHKPPILIQNESHGSESNQYYNPVKEDVQDCGKVPDVCQPSLREKEIKSTCKEEQRPRTANKAPGSKGVKQKSPPAAVAVAVSAAAPPPAVPCAPAENAPAPARRSAGKKPTRRTERTSAGDGANCHRPEEPAAADALGTSVVVPPEPTKTRPCGNNRASHRKELRSSVTCEKRRTRGLSRIVPKSKEFIETESSSSSSSSDSDLESEQEEYPLSKAQTVAASASSGNDQRLKEAAANGGSGPRAPVGSINARTTSDIAKELEEQFYTLVPFGRNELLSPLKDSDEIRSLWVKIDLTLLSRIPEHLPQEPGVLSAPATKDSESAPPSHTSDTPAEKALPKSKRKRKCDNEDDYREIKKSQGEKDSSSRLATSTSNTLSANHCNMNINSVAIPINKNEKMLRSPISPLSDASKHKYTSEDLTSSSRPNGNSLFTSASSSKKPKADSQLQPHGGDLTKAAHNNSENIPLHKSRPQTKPWSPGSNGHRDCKRQKLVFDDMPRSADYFMQEAKRMKHKADAMVEKFGKALNYAEAALSFIECGNAMEQGPMESKSPYTMYSETVELIRYAMRLKTHSGPNATPEDKQLAALCYRCLALLYWRMFRLKRDHAVKYSKALIDYFKNSSKAAQAPSPWGASGKSTGTPSPMSPNPSPASSVGSQGSLSNASALSPSTIVSIPQRIHQMAANHVSITNSILHSYDYWEMADNLAKENREFFNDLDLLMGPVTLHSSMEHLVQYSQQGLHWLRNSAHLS
binding [1]: binds
